PubChem BioAssay AID1259254 | NCATS, 2017

Screen: 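Genome-wide screen for genes that prevent DNA re-replication in cancer cells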 (primary screen)
Cell system: human HCT116 colorectal cancer cells
Reagents: single siRNA against human genes
Duration: 3 days
Measured: 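Nuclei stained with Hoechst and imaged; cell-cycle phase assigned by DNA content; G2 share scaled per plate, non-targeting siRNA 0%, GMNN siRNA 100%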
Reading the numbers: G2 robust z-score: higher = more G2 cells, more excess DNA replication
Call rule: 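An siRNA counts as active if its G2 robust z-score lies at least 5 MADs above the screen median; here such calls match roughly 38% of GMNN control or more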
Here is an unselected part of about 59,000 deposited reagents. In the full data, about 1,550 (2.6%) got an active call. 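G2 share is only a proxy for re-replication; each gene was hit by three separate siRNAs, and active genes were retested.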 Not all columns of the deposit are shown. Reagent sequences are not shown. The record does not give: the amount of reagent.

LAMTOR5 [SID160728692]: G2 robust z-score = -0.776; Call = inactive
LAMTOR5 [SID160728693]: G2 robust z-score = 1.07; Call = inactive
LAMTOR5 [SID160728694]: G2 robust z-score = 2.49; Call = inactive
FUZ [SID160750193]: G2 robust z-score = -0.765; Call = inactive
FUZ [SID160750194]: G2 robust z-score = -0.22; Call = inactive
FUZ [SID160750195]: G2 robust z-score = -0.463; Call = inactive
SCD [SID160716375]: G2 robust z-score = -0.0713; Call = inactive
SCD [SID160716376]: G2 robust z-score = 0.903; Call = inactive
SCD [SID160716377]: G2 robust z-score = -0.0329; Call = inactive
HAPSTR2 [SID160733246]: G2 robust z-score = -0.506; Call = inactive
HAPSTR2 [SID160766310]: G2 robust z-score = 1.19; Call = inactive
HAPSTR2 [SID160766311]: G2 robust z-score = -0.402; Call = inactive
